Measurements as given in patent US6534546B1 (Chugai Seiyaku Kabushiki Kaisha, priority 1994, dated 2003).
Where a name gives a salt, the structure may show the parent alone. For at least one compound, name, drawing or mass did not settle the structure.

Biological target: iNOS (Type 2) (Rattus norvegicus, UniProt Q06518)
Type: biochemical
Details: index of selectivity

`CCSC(=N)Nc1ccc(OC)c(CN)c1` [Example 122, N-(5-(S-ethylisothioureido)-2-methoxyphenylmethyl)amine dihydrochloride] was tested, and the “Ratio of IC50 values E-cNOS/iNOS” value was 0.1.
